Measured values taken from patent US20080319001A1, “Cancer Treatment Using Specific 3,6,9-Substituted Acridines” (priority 2005, published 2008).

System: telomerase (extracts from A2780 human ovarian carcinoma cells)
Test: Modified telomeric repeat amplification protocol (TRAP) assay, cell-free
Format: biochemical
Settings: Table 3
Experimental: The ability of compounds to inhibit telomerase in a cell-free assay was assessed with a modified TRAP assay using extracts from exponentially growing A2780 human ovarian carcinoma cells. The TRAP assay was performed in 2 steps: • (a) telomerase-mediated extension of the forward primer (TS: 5′-AATCCGTCGAGCAGAGTT, Oswel Ltd., Southampton, UK) contained in a 40 μL reaction mix comprising TRAP buffer (20 mM Tris-HCl (pH 8.3), 68 mM KCl, 1.5 mM MgCl2, 1 mM EGTA, 0.05% v/v Tween 20), 0.05 μg bovine serum albumin, 50 μM of each deoxynucleotide triphosphate, 0.1 μg TS primer, and 3 μCi of [α-P]dCTP (Amersham plc, UK)Protein (40 ng or 20 ng) was then incubated with the reaction mix and agent (acid addition and quaternary dimethiodide salts) at final concentrations of up to 50 μM for 20 min at 25° C. […] Telomerase-extended PCR products in the presence or absence of compounds were then determined either by electrophoretic separation using 8% w/w acrylamide denaturing gels and analysis by phosphorimaging or autoradiography, or by harvesting on Whatman filters (25 mm glass microfibre) and analysis by liquid scintillation counting.

SMILES | multiple in brackets beside TRAP EC50 (Cmax over TRAP EC50) [x]
CN(C)c1ccc(Nc2c3ccc(NC(=O)CCN4CCCC4)cc3nc3cc(NC(=O)CCN4CCCC4)ccc23)cc1 [BSG01] | 16.5
O=C(CCN1CCCC1)Nc1ccc2c(NCc3ccc(F)c(F)c3)c3ccc(NC(=O)CCN4CCCC4)cc3nc2c1 [BSG17, N-(9-(3,4-Difluoro-benzylamino)-6-(3-pyrolidin-1-yl-propionamide)-acridin-3-yl)-3-pyrrolidin-1-yl-propionamide] | 53
